This note sets out measurements from PMC6435701.

By UniProt entry, the sequences of proteins in these tests, tags left out. Residues count along the entry.
UniProt O75947: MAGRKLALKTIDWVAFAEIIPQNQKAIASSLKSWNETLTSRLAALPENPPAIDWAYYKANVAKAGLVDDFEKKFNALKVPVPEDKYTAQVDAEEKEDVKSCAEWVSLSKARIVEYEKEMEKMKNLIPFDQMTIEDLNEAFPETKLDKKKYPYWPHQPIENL
UniProt O75964: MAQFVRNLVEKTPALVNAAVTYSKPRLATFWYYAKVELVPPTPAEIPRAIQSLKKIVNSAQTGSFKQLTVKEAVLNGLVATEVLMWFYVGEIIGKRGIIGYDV
UniProt Q07021, residues 74-282: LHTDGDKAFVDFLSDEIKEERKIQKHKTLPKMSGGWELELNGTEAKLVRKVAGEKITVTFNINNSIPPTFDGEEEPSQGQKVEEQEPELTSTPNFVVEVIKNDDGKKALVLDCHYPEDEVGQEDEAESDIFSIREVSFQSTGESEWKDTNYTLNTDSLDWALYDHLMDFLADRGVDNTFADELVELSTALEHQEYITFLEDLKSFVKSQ
UniProt P0DMV8: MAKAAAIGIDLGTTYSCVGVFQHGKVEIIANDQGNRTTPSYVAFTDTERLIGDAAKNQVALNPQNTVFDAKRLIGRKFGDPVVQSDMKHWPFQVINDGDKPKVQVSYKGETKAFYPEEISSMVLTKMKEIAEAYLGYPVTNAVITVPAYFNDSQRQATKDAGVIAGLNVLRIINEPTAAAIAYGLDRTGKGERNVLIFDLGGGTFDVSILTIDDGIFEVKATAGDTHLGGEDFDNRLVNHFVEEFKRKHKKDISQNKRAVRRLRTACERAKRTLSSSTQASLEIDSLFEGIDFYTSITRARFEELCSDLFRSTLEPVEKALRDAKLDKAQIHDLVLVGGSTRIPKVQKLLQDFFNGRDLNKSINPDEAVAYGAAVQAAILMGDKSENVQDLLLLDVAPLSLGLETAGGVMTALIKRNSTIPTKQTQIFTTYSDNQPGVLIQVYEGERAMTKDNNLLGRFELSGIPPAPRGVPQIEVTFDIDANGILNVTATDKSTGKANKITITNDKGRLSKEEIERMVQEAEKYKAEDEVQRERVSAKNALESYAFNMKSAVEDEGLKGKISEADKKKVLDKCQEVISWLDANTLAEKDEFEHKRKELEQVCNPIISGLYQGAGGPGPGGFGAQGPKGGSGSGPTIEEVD
UniProt P34931: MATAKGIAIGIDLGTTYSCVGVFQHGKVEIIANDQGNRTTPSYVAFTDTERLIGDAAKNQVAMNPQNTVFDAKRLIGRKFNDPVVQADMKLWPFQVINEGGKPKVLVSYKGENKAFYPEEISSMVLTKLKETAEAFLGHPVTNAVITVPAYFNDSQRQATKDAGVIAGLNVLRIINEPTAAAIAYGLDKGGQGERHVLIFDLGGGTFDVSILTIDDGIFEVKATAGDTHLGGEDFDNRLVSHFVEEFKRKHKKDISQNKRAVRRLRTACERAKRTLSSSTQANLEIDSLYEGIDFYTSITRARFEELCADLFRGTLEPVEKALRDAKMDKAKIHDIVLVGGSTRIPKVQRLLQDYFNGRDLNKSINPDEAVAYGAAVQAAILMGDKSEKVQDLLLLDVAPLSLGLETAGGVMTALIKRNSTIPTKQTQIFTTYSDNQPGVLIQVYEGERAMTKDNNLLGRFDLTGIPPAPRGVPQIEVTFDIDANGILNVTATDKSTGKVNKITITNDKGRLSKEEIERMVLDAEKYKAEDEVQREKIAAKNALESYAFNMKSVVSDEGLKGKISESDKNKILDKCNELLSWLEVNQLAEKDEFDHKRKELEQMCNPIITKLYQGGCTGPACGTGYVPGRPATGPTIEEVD
UniProt P54652: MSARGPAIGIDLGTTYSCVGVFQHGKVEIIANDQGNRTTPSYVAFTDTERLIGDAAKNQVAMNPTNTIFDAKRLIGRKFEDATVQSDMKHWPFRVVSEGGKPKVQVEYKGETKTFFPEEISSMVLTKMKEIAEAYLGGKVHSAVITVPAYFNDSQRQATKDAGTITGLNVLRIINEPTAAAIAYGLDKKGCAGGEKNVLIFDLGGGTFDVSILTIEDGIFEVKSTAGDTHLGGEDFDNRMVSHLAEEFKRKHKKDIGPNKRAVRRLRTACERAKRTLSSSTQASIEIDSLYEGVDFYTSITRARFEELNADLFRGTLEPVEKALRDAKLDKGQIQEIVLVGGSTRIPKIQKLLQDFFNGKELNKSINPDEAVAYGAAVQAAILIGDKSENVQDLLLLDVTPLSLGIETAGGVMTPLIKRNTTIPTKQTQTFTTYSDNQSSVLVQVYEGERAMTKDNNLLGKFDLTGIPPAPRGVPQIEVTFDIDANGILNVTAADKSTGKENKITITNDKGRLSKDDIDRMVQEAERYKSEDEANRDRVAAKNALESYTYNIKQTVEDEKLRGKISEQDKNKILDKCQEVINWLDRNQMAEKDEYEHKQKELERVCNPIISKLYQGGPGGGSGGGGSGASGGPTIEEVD
UniProt P11182, residues 62-482: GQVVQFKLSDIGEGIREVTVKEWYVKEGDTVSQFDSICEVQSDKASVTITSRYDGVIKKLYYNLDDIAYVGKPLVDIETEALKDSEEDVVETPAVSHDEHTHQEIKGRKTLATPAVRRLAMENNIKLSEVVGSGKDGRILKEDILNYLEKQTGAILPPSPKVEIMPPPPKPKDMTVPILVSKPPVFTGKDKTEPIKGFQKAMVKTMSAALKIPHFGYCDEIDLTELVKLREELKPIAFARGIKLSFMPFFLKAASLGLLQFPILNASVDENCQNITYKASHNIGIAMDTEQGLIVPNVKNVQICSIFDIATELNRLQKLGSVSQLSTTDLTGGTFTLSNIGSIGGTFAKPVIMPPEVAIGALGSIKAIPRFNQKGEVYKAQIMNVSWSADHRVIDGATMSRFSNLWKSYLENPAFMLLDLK
UniProt P28482: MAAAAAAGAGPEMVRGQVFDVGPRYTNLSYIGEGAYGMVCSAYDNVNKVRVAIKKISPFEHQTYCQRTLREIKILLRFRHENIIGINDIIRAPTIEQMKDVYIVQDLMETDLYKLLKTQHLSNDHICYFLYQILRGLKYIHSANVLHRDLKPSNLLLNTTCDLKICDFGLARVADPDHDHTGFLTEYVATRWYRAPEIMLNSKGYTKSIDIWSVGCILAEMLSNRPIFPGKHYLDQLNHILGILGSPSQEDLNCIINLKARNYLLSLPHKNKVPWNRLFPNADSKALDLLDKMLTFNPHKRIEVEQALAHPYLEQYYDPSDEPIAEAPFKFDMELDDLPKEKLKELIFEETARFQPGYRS
UniProt P14618: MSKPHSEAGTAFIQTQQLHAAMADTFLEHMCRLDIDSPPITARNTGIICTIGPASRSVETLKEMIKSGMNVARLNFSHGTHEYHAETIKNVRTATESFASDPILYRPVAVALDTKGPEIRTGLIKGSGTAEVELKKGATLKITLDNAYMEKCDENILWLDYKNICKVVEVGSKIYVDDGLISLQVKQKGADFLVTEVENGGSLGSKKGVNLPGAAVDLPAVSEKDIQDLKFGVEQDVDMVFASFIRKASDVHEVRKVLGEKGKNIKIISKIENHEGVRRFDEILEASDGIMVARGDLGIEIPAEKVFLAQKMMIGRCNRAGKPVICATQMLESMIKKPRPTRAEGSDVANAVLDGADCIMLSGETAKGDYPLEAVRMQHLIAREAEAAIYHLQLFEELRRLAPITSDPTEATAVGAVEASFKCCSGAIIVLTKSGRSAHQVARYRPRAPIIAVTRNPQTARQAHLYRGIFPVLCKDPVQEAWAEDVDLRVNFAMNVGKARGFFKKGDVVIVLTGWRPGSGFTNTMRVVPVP
UniProt P67775: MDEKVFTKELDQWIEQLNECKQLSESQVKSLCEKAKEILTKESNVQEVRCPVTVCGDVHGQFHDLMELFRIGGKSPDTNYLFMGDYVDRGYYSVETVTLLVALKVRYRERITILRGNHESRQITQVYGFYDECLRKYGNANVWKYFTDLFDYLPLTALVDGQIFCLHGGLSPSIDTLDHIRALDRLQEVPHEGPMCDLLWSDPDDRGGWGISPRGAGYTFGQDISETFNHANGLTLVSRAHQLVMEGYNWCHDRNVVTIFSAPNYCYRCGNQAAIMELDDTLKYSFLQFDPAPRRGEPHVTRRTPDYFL
UniProt P38646, residues 47-679: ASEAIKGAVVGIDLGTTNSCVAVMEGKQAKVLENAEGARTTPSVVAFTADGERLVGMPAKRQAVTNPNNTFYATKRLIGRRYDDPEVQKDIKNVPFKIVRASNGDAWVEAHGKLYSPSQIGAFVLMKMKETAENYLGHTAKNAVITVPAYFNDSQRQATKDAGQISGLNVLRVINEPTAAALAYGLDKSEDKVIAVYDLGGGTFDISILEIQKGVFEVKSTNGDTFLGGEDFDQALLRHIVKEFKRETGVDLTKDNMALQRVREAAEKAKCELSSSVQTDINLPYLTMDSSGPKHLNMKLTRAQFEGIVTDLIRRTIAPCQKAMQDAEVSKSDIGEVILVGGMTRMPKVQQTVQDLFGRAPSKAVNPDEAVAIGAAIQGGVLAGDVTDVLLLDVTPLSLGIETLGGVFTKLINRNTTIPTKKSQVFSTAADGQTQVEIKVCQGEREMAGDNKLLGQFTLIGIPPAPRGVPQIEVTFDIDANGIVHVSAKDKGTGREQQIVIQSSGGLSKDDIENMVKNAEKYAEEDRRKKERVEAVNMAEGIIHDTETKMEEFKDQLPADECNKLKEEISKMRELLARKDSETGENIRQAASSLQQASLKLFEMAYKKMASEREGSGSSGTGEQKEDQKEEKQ

No constants are given. Whether binding was seen depends on the method and setting. Binding seen in cells or lysates may run through a third protein. These calls come from enrichment with a bait or labelling near it, and not all partners need be listed.

The experiment deals with Dynamin-related protein 1 (human (endogenous in iPS-derived neurons, fibroblasts, postmortem brain)) (UniProt O00429). Description: affinity purification with mass spectrometry; 3 mg lysate (10 mM HEPES-NaOH pH 7.9, 150 mM NaCl, 1 mM EGTA, 1% Triton X-100) of neurons derived from HD patient iPS cells, IP with anti-Drp1 antibody overnight, protein A/G beads, LC-MS/MS; hits listed are found in HD and not in normal-subject cells.

For “ATP synthase subunit d, mitochondrial (from UniProt O75947 1-161)”, the binding entry is reported as “binds”.
On to “ATP synthase subunit g, mitochondrial (from UniProt O75964 1-103)”, for which the binding result is “binds”.
As to “B-cell CLL/lymphoma 7 protein family member C (from UniProt Q8WUZ0 1-217)”, the binding result is listed as “binds”.
As to “Complement component 1 Q subcomponent-binding protein, mitochondrial (from UniProt Q07021 74-282)”, the binding entry was “binds”.
Next, “Creatine kinase U-type, mitochondrial (from UniProt P12532 40-417)”: “binds”; “Heat shock 70 kDa protein 1 A/1B (from UniProt P0DMV8 1-641)”: “binds”; “Heat shock 70 kDa protein 1-like (from UniProt P34931 1-641)”: “binds”.
Consider “Heat shock-related 70 kDa protein 2 (from UniProt P54652 1-639)”, for which the binding result was “binds”.
On to “Lipoamide acyltransferase component of branched-chain alpha-keto acid dehydrogenase complex, mitochondrial (from UniProt P11182 62-482)”, for which the binding result was “binds”.
On to “Mitogen-activated protein kinase 1 (from UniProt P28482 1-360)”, for which the binding entry was “binds”.
Consider “Pyruvate kinase isozymes M1/M2 (from UniProt P14618 1-531)”, for which the binding entry is given as “binds”.
Next, “Serine/threonine-protein phosphatase 2 A catalytic subunit alpha isoform (from UniProt P67775 1-309)”: “binds”.
Next, “Stress-70 protein, mitochondrial (from UniProt P38646 47-679)”: “binds”.
